{"sequences": {"note": "Chains of the proteins cited; added tags and fusions are not shown. Residues count along the entry.", "UniProt Q5NCH9, residues 24-871": "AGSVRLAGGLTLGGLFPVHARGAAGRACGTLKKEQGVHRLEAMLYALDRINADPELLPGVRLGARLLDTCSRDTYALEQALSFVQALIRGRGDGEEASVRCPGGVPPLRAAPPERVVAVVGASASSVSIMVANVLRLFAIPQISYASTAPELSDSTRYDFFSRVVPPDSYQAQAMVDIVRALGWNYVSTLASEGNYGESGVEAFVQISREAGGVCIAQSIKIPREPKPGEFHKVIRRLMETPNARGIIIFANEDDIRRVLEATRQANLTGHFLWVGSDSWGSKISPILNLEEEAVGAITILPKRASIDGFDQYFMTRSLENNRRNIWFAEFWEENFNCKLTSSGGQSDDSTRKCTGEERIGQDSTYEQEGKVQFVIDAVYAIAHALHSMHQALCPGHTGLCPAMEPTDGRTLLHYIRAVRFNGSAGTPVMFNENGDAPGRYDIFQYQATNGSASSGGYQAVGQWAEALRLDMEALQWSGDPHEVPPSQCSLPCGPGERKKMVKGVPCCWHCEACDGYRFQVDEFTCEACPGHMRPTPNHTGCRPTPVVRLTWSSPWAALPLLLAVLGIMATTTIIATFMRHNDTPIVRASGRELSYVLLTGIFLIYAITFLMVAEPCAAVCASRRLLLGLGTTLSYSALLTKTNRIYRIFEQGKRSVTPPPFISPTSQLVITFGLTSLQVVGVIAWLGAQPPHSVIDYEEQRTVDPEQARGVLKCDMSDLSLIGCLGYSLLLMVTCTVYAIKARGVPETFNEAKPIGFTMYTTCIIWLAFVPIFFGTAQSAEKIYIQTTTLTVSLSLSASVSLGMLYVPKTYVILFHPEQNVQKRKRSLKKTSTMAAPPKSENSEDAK"}, "source": "paper PMC5902029", "binders": {"B1": {"name": "LRIT1, endogenous in mouse retina (protein, UniProt Q8K099 22-624)", "chain": "FCPSECSCSLRILSDGSKARTVVCSDPDLTLPPASIPPDTCKLRLERTAIRRVPGETFRPLSRLEQLWLPYNALSELSALMLRGLRRLRELRLPGNRLVTFPWAALRDTPQLQLLDLQANRLSTLPPEAAHFLENLTFLDLSNNQLMRLPEELLDVWAHLKTGPFLSGHHARLILGLQDNPWVCDCRLYDLVHLLDGWVSSNLIFIEARLRCASPRSLAGVAFSQLELRKCQSPELRPGVTSIISPLGSTVLLRCGATGIPGPEMSWRRANGRPLNGTVHQEVSSDGSSWTLLDLPVVSLFDSGDYICQAKNFLGASETLISLIVTEPQTSTGYSGIPGVLWARTGEGAEAAAYNNKLVARHVPHMPEHVALATKPSMPSIKEELALQNFQMDVPGEFSREPSEHQEAQMVRSLKVVGDTYHSVSLVWKAPQAGNTTAFSVLYAVFGHRDMRRMTVEPGKTSVTIEGLAPKTKYVACVCVRGLVPTKEQCVIFSTDEVVDAEGTQRLINMVVISVAAIIALPPTLLVCCGALRRRCHKCRTGGSAEASGAYVNLERLGHSEDSSEVLSRSSLSEGDRLLSARSSLDSQVLGVRGGRRINEYFC"}}, "target": "mGluR6 (metabotropic glutamate receptor 6), endogenous in mouse retina (mouse (endogenous in retina)) (UniProt Q5NCH9)", "assay": "affinity purification with mass spectrometry; immunoprecipitation with specific anti-mGluR6 antibodies from membrane fractions of the retina; eluates subjected to mass spectrometry", "note": "These are yes or no findings as the source states them, for the method shown. In cells and extracts the contact can be indirect. Here binding means that the protein was enriched with, or labelled near, the bait; the list need not be complete."}
{"binder": "B1", "values": [{"measurement": "binding", "result": "binds"}]}
